Test results as given in patent US20220389394A1.
No constants are given. Whether binding was seen depends on the method and setting. Where a sequence is shown, tags or fusion partners need not be part of it.

Protein sequences, listed by entry. Tags and fused reporters are not part of them. Lines headed by an entry give the natural chain unless they say otherwise; changes in a name come on top. Chains listed by the source or under a name are the forms on record and can include a tag or linker. Residues count along the entry.
UniProt P12314, residues 16-288: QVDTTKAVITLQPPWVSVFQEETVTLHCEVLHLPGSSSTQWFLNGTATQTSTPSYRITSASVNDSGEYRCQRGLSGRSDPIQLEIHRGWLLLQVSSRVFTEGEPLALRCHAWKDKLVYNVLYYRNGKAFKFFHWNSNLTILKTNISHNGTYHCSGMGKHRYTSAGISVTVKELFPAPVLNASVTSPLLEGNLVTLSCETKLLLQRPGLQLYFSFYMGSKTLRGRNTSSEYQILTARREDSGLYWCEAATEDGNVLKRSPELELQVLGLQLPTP
biotinylated recombinant human FcγRIIIa (Val 176 variant) protein (Sino Biological) (P08637, form named): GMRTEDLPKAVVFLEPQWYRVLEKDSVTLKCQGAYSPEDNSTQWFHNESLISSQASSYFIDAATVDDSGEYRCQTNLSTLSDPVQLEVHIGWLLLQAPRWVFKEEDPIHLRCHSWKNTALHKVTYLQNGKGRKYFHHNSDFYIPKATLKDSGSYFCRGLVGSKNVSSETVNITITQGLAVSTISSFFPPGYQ

How the values were obtained:
[1] = molecular target: biotinylated recombinant human FcγRI protein (Sino Biological) (human) (UniProt P12314); assay: AlphaScreen competition with human IgG beads; text: none could fully compete with human IgG at the highest concentrations tested
[2] = molecular target: biotinylated recombinant human FcγRIIIa (Val 176 variant) protein (Sino Biological) (human) (UniProt P08637); assay: AlphaScreen competition with human IgG beads; text: none could fully compete with human IgG

B1: human FLT3-ligand (Δ5 amino acid) human IgG4 (S228P/F234A/L235A/M252Y/S254T/T256E) fusion protein (SEQ ID NO:14) (Fc fusion)
chain: TQDCSFQHSPISSDFAVKIRELSDYLLQDYPVTVASNLQDEELCGGLWRLVLAQRWMERLKTVAGSKMQGLLERVNTEIHFVTKCAFQPPPSCLRFVQTNISRLLQETSEQLVALKPWITRQNFSRCLELQCQPDSSTLPPPWSPRPLEATAESKYGPPCPPCPAPEAAGGPSVFLFPPKPKDTLYITREPEVTCVVVDVSQEDPEVQFNWYVDGVEVHNAKTKPREEQFNSTYRVVSVLTVLHQDWLNGKEYKCKVSNKGLPSSIEKTISKAKGQPREPQVYTLPPSQEEMTKNQVSLTCLVKGFYPSDIAVEWESNGQPENNYKTTPPVLDSDGSFFLYSRLTVDKSRWQEGNVFSCSVMHEALHNHYTQKSLSLSLGK
- binding [1]: no binding (tested: 294 nM (highest of the titration))
- binding [2]: no binding (tested: 1176 nM (highest of the titration))
